Results reported in PMC10371808.

Protein sequences, listed by entry. Tags and fused reporters are not part of them. Lines headed by an entry give the natural chain unless they say otherwise; changes in a name come on top.
UniProt P9WG67, whole entry, looked up, stated change not applied: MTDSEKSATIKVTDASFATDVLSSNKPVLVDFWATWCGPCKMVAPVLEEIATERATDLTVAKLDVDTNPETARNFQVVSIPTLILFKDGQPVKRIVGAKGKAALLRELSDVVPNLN

Columns and labels:
[1] = target: T1, NrdH C14S (M. tuberculosis) (UniProt A5U767); test: affinity purification with mass spectrometry; only the target purified
T1 sequence: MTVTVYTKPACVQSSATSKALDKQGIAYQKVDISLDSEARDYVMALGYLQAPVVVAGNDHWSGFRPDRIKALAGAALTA

[2] = target: TrxC C40S (M. tuberculosis) (UniProt P9WG67); test: as above

Substance | binding [1] | binding [2]
IdeR (from UniProt P9WMH1 1-230) | binds | –
NrdE (from UniProt P9WH75 1-725) (enzyme) | no binding | binds
Putative thiosulfate sulfurtransferase (CysA1) (from UniProt P9WHF9 1-277) (enzyme) | binds | binds
DosR (from UniProt P9WMF9 1-217) | – | binds

These are yes or no findings as the source states them, for the method shown. In cells and extracts the contact can be indirect. A yes stands for co-enrichment or nearness to the bait. Other partners may have been found. For part of these data: No binding means not detected with the bait.
